Experimental findings from article PMC6193355 are described below.

Amino acid sequences for entries named in this document (tags omitted).
UniProt P17676: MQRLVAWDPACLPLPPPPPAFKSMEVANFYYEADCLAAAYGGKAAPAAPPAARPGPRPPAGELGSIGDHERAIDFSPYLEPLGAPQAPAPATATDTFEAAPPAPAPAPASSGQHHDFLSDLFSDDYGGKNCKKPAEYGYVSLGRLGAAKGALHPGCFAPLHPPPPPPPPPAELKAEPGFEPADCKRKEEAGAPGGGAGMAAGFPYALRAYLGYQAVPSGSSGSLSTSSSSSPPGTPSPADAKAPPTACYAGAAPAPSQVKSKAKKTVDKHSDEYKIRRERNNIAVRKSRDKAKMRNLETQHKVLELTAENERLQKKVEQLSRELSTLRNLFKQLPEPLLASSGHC
UniProt Q9UER7: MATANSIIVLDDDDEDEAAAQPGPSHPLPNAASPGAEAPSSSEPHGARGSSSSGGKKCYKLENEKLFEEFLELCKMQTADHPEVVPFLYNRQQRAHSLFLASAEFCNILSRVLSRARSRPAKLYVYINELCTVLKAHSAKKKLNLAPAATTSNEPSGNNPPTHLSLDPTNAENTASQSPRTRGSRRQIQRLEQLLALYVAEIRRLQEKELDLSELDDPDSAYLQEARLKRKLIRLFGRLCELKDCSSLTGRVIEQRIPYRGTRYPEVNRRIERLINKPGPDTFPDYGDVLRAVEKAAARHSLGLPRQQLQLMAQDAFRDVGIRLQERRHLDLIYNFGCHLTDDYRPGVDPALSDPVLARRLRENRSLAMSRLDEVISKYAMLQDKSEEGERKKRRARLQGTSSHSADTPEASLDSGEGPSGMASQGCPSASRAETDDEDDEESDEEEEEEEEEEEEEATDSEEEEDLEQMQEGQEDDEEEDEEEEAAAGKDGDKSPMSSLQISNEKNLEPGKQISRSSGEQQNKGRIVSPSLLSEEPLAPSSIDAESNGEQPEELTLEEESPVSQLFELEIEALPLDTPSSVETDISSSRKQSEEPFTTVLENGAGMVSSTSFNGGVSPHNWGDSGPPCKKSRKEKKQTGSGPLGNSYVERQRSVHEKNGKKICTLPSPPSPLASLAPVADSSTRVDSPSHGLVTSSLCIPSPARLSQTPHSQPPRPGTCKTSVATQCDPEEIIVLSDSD

The target in the experiment is CCAAT/enhancer-binding protein-β (HA-CEBP-β) (UniProt P17676). Kind of experiment: co-IP; HA-CEBP-β transfected into DAXX-overexpressing ascites cells; lysed in NP-40 buffer; immunoprecipitated with anti-HA affinity beads for 4 h at 4 °C, washed in NTEN buffer; western blot with antibodies to DAXX and CEBP-β. (A western blot detects proteins with antibodies after separation by electrophoresis.)

Results are given in words; binding and its absence hold for the method and conditions named. In cells and extracts the contact can be indirect. Some binding calls cover weakened binding; strength is not graded here.

As to “death-domain-associated protein (DAXX), GFP-DAXX (from UniProt Q9UER7 1-740)”, the binding result was “binds”.
